Data reported in patent US20190076510A1, “PROTEIN KINASE C INHIBITION TO EXTEND TISSUE PLASMINOGEN ACTIVATOR TREATMENT FOR ISCHEMIC DISEASE” (THE REGENTS OF THE UNIVERSITY OF MICHIGAN, priority 2017, published 2019).
For at least one compound, name, drawing or mass did not settle the structure.

Key:
Assay type in all cases: in vivo, mouse
[1] = test system: photothrombotic MCAO mice; experiment: MCAO-induced cerebral vascular permeability to fluorescent-labeled 70 kDa dextran; details: pretreatment by gavage 10 mg/kg, three doses over 3 days; 24 hours after MCAO
[2] = test system: occludin Ser490 phosphorylation; experiment: pS490 occludin phosphorylation in the penumbra after MCAO (immunostaining); details: PKC-β inhibitor pretreatment
[3] = test system: photothrombotic MCAO mice; experiment: Cerebral infarct volume after MCAO (TTC dye staining); details: PKC-β inhibitor pretreatment; 72 hours after MCAO

CN(C)C[C@@H]1CCn2cc(c3ccccc32)C2=C(C(=O)NC2=O)c2cn(c3ccccc23)CCO1 [LY333531]
BBB permeability to Texas Red dextran: dye released into the neural parenchyma of the penumbra (brain sections) [1]: near complete block | pS490 occludin phosphorylation after MCAO in the penumbra [2]: blocked | cerebral infarct volume (TTC dye staining) [3]: significant reduction
